The supplement of paper PMC7661543
The effect of the compound repeats well; differences between the knockouts mostly do not.

Columns and labels:
HCC-38 = experiment: relative cell number vs DMSO control (72 h) (% of DMSO); higher = less growth inhibition (more cells)
Procedure: (§1)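 QMAP-Seq: a pool of 5 breast cancer cell lines (ZR-75-1, SKBR3, HCC-38, MDA-MB-231, BT-20), each carrying 12 doxycycline-inducible Cas9 sgRNA perturbations (11 knockouts plus non-targeting sgNT), was treated with compounds for 72 h at four 10-fold doses (10 nM-10 uM or 1 nM-1 uM range). Barcodes were amplified and sequenced, and cell number was interpolated from 293T spike-in standard curves. The result is expressed as % of the median of DMSO wells. Two biological replicates.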

MDA-MB-231 = experiment: as above
Procedure: as §1

O=[N+]([O-])c1ccc(O)c2ncccc12 [Nitroxoline]
relative cell number
Settings | HCC-38 | MDA-MB-231
sgRNA knockout: sgATF3, 10 nM | 85.39 | 91.3
sgRNA knockout: sgATF3, 100 nM | 86.34 | 96.8
sgRNA knockout: sgATF3, 1000 nM | 116 | 94.1
sgRNA knockout: sgATF3, 10000 nM | 51.5 | 45.9
sgRNA knockout: sgATF4, 10 nM | 92.9 | 84.4
sgRNA knockout: sgATF4, 100 nM | 80.6 | 128
sgRNA knockout: sgATF4, 1000 nM | 103 | 79.9
sgRNA knockout: sgATF4, 10000 nM | 48.2 | 43
sgRNA knockout: sgATF6, 10 nM | 83.3 | 101
sgRNA knockout: sgATF6, 100 nM | 100 | 86.2
sgRNA knockout: sgATF6, 1000 nM | 114 | 67.6
sgRNA knockout: sgATF6, 10000 nM | 59 | 37.2
sgRNA knockout: sgATG7, 10 nM | 89.6 | 86.4
sgRNA knockout: sgATG7, 100 nM | 85.1 | 71.9
sgRNA knockout: sgATG7, 1000 nM | 99.1 | 78.8
sgRNA knockout: sgATG7, 10000 nM | 49 | 36.9
sgRNA knockout: sgERN1, 10 nM | 90.6 | 82.2
sgRNA knockout: sgERN1, 100 nM | 94.1 | 94.9
sgRNA knockout: sgERN1, 1000 nM | 94.25 | 95.7
sgRNA knockout: sgERN1, 10000 nM | 51.9 | 30.6
sgRNA knockout: sgHSF1, 10 nM | 86.1 | 92.6
sgRNA knockout: sgHSF1, 100 nM | 100 | 74.4
sgRNA knockout: sgHSF1, 1000 nM | 92.5 | 75.6
sgRNA knockout: sgHSF1, 10000 nM | 56.5 | 40.5
sgRNA knockout: sgHSF2, 10 nM | 84.59 | 89.6
sgRNA knockout: sgHSF2, 100 nM | 88.7 | 111
sgRNA knockout: sgHSF2, 1000 nM | 105 | 87.5
sgRNA knockout: sgHSF2, 10000 nM | 51.2 | 42.8
sgRNA knockout: sgKEAP1, 10 nM | 88.1 | 101
sgRNA knockout: sgKEAP1, 100 nM | 104 | 87.5
sgRNA knockout: sgKEAP1, 1000 nM | 103 | 87.6
sgRNA knockout: sgKEAP1, 10000 nM | 59.96 | 35.7
sgRNA knockout: sgNFE2L2, 10 nM | 87.6 | 109
sgRNA knockout: sgNFE2L2, 100 nM | 81.8 | 62.4
sgRNA knockout: sgNFE2L2, 1000 nM | 112 | 79.8
sgRNA knockout: sgNFE2L2, 10000 nM | 45.5 | 38.49
sgRNA knockout: sgSLC35F2, 10 nM | 91 | 83.7
sgRNA knockout: sgSLC35F2, 100 nM | 89.9 | 75.4
sgRNA knockout: sgSLC35F2, 1000 nM | 108 | 84
sgRNA knockout: sgSLC35F2, 10000 nM | 47.7 | 38
sgRNA knockout: sgXBP1, 10 nM | 88.6 | 95.69
sgRNA knockout: sgXBP1, 100 nM | 80.5 | 87.5
sgRNA knockout: sgXBP1, 1000 nM | 110 | 94.1
sgRNA knockout: sgXBP1, 10000 nM | 49.9 | 32.8

Oc1cccc(-c2nc(N3CCOCC3)c3oc4ncccc4c3n2)c1 [PI103]
relative cell number
Settings | HCC-38 | MDA-MB-231
sgRNA knockout: sgATF3, 10 nM | 119 | 137
sgRNA knockout: sgATF3, 100 nM | 121 | 91.7
sgRNA knockout: sgATF3, 1000 nM | 85.1 | 85.5
sgRNA knockout: sgATF3, 10000 nM | 34.9 | 58.4
sgRNA knockout: sgATF4, 10 nM | 109 | 121
sgRNA knockout: sgATF4, 100 nM | 123.2 | 173
sgRNA knockout: sgATF4, 1000 nM | 90.5 | 114
sgRNA knockout: sgATF4, 10000 nM | 34.8 | 53.3
sgRNA knockout: sgATF6, 10 nM | 122 | 120
sgRNA knockout: sgATF6, 100 nM | 130 | 115
sgRNA knockout: sgATF6, 1000 nM | 83.2 | 80.5
sgRNA knockout: sgATF6, 10000 nM | 33 | 40.4
sgRNA knockout: sgATG7, 10 nM | 119 | 107
sgRNA knockout: sgATG7, 100 nM | 122 | 123
sgRNA knockout: sgATG7, 1000 nM | 86.19 | 110
sgRNA knockout: sgATG7, 10000 nM | 36.5 | 46.1
sgRNA knockout: sgERN1, 10 nM | 118 | 105
sgRNA knockout: sgERN1, 100 nM | 131 | 111
sgRNA knockout: sgERN1, 1000 nM | 93.6 | 122
sgRNA knockout: sgERN1, 10000 nM | 36.4 | 41.6
sgRNA knockout: sgHSF1, 10 nM | 131 | 108
sgRNA knockout: sgHSF1, 100 nM | 133 | 112
sgRNA knockout: sgHSF1, 1000 nM | 92.3 | 82.3
sgRNA knockout: sgHSF1, 10000 nM | 33.7 | 51.2
sgRNA knockout: sgHSF2, 10 nM | 116 | 119
sgRNA knockout: sgHSF2, 100 nM | 132 | 123.6
sgRNA knockout: sgHSF2, 1000 nM | 86.4 | 87.5
sgRNA knockout: sgHSF2, 10000 nM | 33.4 | 40.7
sgRNA knockout: sgKEAP1, 10 nM | 138 | 139.7
sgRNA knockout: sgKEAP1, 100 nM | 178 | 106
sgRNA knockout: sgKEAP1, 1000 nM | 89.4 | 74
sgRNA knockout: sgKEAP1, 10000 nM | 45.5 | 56
sgRNA knockout: sgNFE2L2, 10 nM | 112 | 123
sgRNA knockout: sgNFE2L2, 100 nM | 114 | 124
sgRNA knockout: sgNFE2L2, 1000 nM | 89.4 | 87.7
sgRNA knockout: sgNFE2L2, 10000 nM | 28.4 | 48.7
sgRNA knockout: sgSLC35F2, 10 nM | 114 | 108
sgRNA knockout: sgSLC35F2, 100 nM | 127.2 | 129
sgRNA knockout: sgSLC35F2, 1000 nM | 81.4 | 87.1
sgRNA knockout: sgSLC35F2, 10000 nM | 34.3 | 41.8
sgRNA knockout: sgXBP1, 10 nM | 118 | 103
sgRNA knockout: sgXBP1, 100 nM | 114 | 119
sgRNA knockout: sgXBP1, 1000 nM | 84 | 84.9
sgRNA knockout: sgXBP1, 10000 nM | 30.9 | 44.7

CC(=O)c1c(C)c2cnc(Nc3ccc(N4CCNCC4)cn3)nc2n(C2CCCC2)c1=O [Palbociclib]
relative cell number
Settings | HCC-38 | MDA-MB-231
sgRNA knockout: sgATF3, 10 nM | 81 | 92.4
sgRNA knockout: sgATF3, 100 nM | 41.5 | 42.2
sgRNA knockout: sgATF3, 1000 nM | 44.6 | 31.6
sgRNA knockout: sgATF3, 10000 nM | 39.8 | 26.9
sgRNA knockout: sgATF4, 10 nM | 80.8 | 78.5
sgRNA knockout: sgATF4, 100 nM | 39.3 | 40
sgRNA knockout: sgATF4, 1000 nM | 47.2 | 32.9
sgRNA knockout: sgATF4, 10000 nM | 40.8 | 25.6
sgRNA knockout: sgATF6, 10 nM | 81.7 | 73.6
sgRNA knockout: sgATF6, 100 nM | 44 | 44
sgRNA knockout: sgATF6, 1000 nM | 42.6 | 29.7
sgRNA knockout: sgATF6, 10000 nM | 45.9 | 16.9
sgRNA knockout: sgATG7, 10 nM | 81.2 | 99.8
sgRNA knockout: sgATG7, 100 nM | 41.1 | 51.9
sgRNA knockout: sgATG7, 1000 nM | 40.6 | 26.5
sgRNA knockout: sgATG7, 10000 nM | 41.7 | 18
sgRNA knockout: sgERN1, 10 nM | 79.3 | 74.9
sgRNA knockout: sgERN1, 100 nM | 41.9 | 42
sgRNA knockout: sgERN1, 1000 nM | 39.62 | 36
sgRNA knockout: sgERN1, 10000 nM | 40 | 23.5
sgRNA knockout: sgHSF1, 10 nM | 76.1 | 87
sgRNA knockout: sgHSF1, 100 nM | 37.6 | 36.1
sgRNA knockout: sgHSF1, 1000 nM | 48.4 | 33.6
sgRNA knockout: sgHSF1, 10000 nM | 51.3 | 26.3
sgRNA knockout: sgHSF2, 10 nM | 87.9 | 92.2
sgRNA knockout: sgHSF2, 100 nM | 45 | 52.7
sgRNA knockout: sgHSF2, 1000 nM | 42.9 | 27.1
sgRNA knockout: sgHSF2, 10000 nM | 44.8 | 24.1
sgRNA knockout: sgKEAP1, 10 nM | 78 | 74.8
sgRNA knockout: sgKEAP1, 100 nM | 53.7 | 53.06
sgRNA knockout: sgKEAP1, 1000 nM | 40 | 36.3
sgRNA knockout: sgKEAP1, 10000 nM | 34.4 | 21.2
sgRNA knockout: sgNFE2L2, 10 nM | 83.1 | 79.8
sgRNA knockout: sgNFE2L2, 100 nM | 39 | 45.1
sgRNA knockout: sgNFE2L2, 1000 nM | 42 | 43.5
sgRNA knockout: sgNFE2L2, 10000 nM | 38.7 | 22.9
sgRNA knockout: sgSLC35F2, 10 nM | 81.8 | 80
sgRNA knockout: sgSLC35F2, 100 nM | 41.7 | 35.3
sgRNA knockout: sgSLC35F2, 1000 nM | 42.8 | 35.2
sgRNA knockout: sgSLC35F2, 10000 nM | 39.3 | 14.8
sgRNA knockout: sgXBP1, 10 nM | 87.3 | 79.6
sgRNA knockout: sgXBP1, 100 nM | 42.8 | 37
sgRNA knockout: sgXBP1, 1000 nM | 49.3 | 27.5
sgRNA knockout: sgXBP1, 10000 nM | 43 | 19.5
